“Also recorded” adds a separate entry of the source.
How the values were obtained:
[1] = test system: overnight abstinent smokers; test: Cardiovascular measures (blood pressure, heart rate) during Trier Social Stress Test (Example 1); assay type: in vivo, human
[2] = test system: overnight abstinent smokers; test: Blood measurements: insulin, glucose, C-peptide, non-esterified fatty acids (Example 1); assay type: in vivo, human; conditions: 60 IU intranasal vs placebo
Procedure: Blood measurements: Blood samples were analyzed for measurements of insulin, glucose, C-peptide, and non-esterified fatty acids.
Serum insulin was analyzed on the Immulite 1000 immunoassay system (Siemens Healthcare GmbH, Erlangen, Germany). This is a solid-phase, enzyme-labeled chemiluminescent immunometric assay. The solid phase (bead) was coated with monoclonal murine anti-insulin antibody. The liquid phase consisted of alkaline phosphatase (bovine calf intestine) conjugated to polyclonal sheep anti-insulin antibody and alkaline phosphatase (bovine calf intestine) conjugated to monoclonal murine anti-insulin antibody. The patient sample and the reagent were incubated together with the coated bead for 60 minutes. […]
Serum glucose was performed on the ACE ALERA system (Alfa Wassermann Diagnostic Technologies, S.p.A., Bologna, Italy). An increase in absorbance of NADH is directly proportional to glucose concentration, and was measured bichromatically at 340 nm/378 nm. […]
Blood samples were collected at 12:20, 13:00, 13:40, and 14:10 and analyzed for non-esterified fatty acids using an AU 480 chemistry analyzer (Beckman Coulter, Inc., Brea, Calif.) using a NEFA-HR(2) kit (Wako Chemicals USA, Inc., Cape Charles, Va.). […]

[3] = 60 IU vs placebo, Trier Social Stress Test

With “intranasal insulin: bulk human Regular insulin (U100 Novolin R, Novo Nordisk US), 100 IU/ml, six nasal sprays delivering 60 IU” the “Heart rate, effect of treatment” value [1, 3] was “treatment groups did not differ”, the “Systolic blood pressure, effect of treatment” value [1, 3] was “Main effect of treatment was not significant” and the “Diastolic blood pressure, treatment×time interaction” value ([1]; 60 IU vs placebo, Trier Social Stress Test, p≤0.05) was “The interaction was significant”. For the same substance, the “Diastolic blood pressure, interaction, b” value ([1]; SE(b)=0.27, z=−1.92, p≤0.05) was −0.52, the “Systolic blood pressure, treatment×time interaction, b” value ([1]; SE(b)=0.32, z=−1.46, p=0.14, not significant) was −0.46 and the “Heart rate, treatment×time, b” value ([1]; SE(b)=1.03, z=−0.79, p=0.42) was −0.81. For the same substance, the “Diastolic blood pressure, main effect of treatment, b” value ([1]; SE(b)=2.58, z=1.80, p=0.07, not significant) was 4.64, the “Systolic blood pressure, main effect of treatment, b” value ([1]; SE(b)=4.18, z=1.55, p=o.12) was 6.48 and the “Heart rate, treatment, b” value ([1]; SE(b)=4.23, z=0.00, p=0.99) was 0.01. For the same substance, the “C-peptide levels, effect of treatment” value [2] was “did not differ; also recorded: no detection of treatment effect” and the “Non-esterified fatty acids, effect of treatment” value ([2]; increase over time) was “did not differ; also recorded: occurred for both treatment groups”.
